Test results as given in patent US10011573B2, “Human androgen receptor DNA-binding domain (DBD) compounds as therapeutics and methods for their use” (The University of British Columbia, priority 2014, dated 2018).
Numbering of substitutions follows the chain as printed. Entries after “also recorded” stand apart in the source; their conditions may differ.

Tests used:
PARP = experiment: Western blots against PARP / cleaved PARP (apoptosis); format: cell-based, human; conditions: PC3 luciferase assay lysates
Protocol: Cell lysates (40 μl) from luciferase assays (96-well plate) were separated on a 10% SDS-polyacrylamide mini gel. Protein was transferred to methanol-charged PVDF membranes and probed with anti-AR441 (mouse, Sigma™) monoclonal primary antibody. Blots were also probed with polyclonal anti-actin (rabbit, Sigma™) to show equal loading and polyclonal anti-PARP/anti-cleaved PARP (rabbit, Sigma™) to test for induction of apoptosis. Lysates from CWR-R1 cells were additionally probed with polyclonal anti-FKBP5 (rabbit, Sigma™) following 2 days of incubation with compounds.

AR-V7Y594D = molecular target: T1, AR-V7Y594D (Homo sapiens, UniProt P10275, Y594D); experiment: ARR3tk-luciferase reporter assay in PC3 cells, AR-V7 Y594D
T1 sequence (P10275 1-644 isoform P10275-3 Y594D): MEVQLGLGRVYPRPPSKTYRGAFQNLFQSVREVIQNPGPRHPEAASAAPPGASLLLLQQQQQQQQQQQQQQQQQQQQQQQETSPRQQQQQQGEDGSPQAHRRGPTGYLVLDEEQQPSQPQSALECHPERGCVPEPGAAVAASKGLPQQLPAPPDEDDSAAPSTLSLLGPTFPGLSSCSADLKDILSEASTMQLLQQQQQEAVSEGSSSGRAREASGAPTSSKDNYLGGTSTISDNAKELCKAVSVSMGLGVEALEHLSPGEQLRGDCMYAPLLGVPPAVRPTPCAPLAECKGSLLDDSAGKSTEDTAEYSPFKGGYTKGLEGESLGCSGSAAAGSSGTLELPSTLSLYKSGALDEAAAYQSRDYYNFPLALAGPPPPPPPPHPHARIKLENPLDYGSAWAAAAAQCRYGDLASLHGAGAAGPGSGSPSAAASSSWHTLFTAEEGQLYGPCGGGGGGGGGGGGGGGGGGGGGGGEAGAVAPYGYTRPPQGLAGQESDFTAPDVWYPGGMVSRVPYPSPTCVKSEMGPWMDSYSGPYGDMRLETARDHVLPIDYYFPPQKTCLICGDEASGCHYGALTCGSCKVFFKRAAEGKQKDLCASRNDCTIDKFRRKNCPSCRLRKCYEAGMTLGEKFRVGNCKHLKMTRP

AR Q592D mutant = molecular target: T2, AR Q592D mutant (Homo sapiens, UniProt P10275, Q592D); experiment: ARR3tk-luciferase reporter assay in PC3 cells, AR Q592D; format: cell-based
T2 construct: Full-length human AR (hARWT) or splice variant (AR-V7) was encoded on a pcDNA3.1 expression plasmid; expressed in transfected cells; host or cells: PC3
T2 sequence (P10275 1-920 Q592D): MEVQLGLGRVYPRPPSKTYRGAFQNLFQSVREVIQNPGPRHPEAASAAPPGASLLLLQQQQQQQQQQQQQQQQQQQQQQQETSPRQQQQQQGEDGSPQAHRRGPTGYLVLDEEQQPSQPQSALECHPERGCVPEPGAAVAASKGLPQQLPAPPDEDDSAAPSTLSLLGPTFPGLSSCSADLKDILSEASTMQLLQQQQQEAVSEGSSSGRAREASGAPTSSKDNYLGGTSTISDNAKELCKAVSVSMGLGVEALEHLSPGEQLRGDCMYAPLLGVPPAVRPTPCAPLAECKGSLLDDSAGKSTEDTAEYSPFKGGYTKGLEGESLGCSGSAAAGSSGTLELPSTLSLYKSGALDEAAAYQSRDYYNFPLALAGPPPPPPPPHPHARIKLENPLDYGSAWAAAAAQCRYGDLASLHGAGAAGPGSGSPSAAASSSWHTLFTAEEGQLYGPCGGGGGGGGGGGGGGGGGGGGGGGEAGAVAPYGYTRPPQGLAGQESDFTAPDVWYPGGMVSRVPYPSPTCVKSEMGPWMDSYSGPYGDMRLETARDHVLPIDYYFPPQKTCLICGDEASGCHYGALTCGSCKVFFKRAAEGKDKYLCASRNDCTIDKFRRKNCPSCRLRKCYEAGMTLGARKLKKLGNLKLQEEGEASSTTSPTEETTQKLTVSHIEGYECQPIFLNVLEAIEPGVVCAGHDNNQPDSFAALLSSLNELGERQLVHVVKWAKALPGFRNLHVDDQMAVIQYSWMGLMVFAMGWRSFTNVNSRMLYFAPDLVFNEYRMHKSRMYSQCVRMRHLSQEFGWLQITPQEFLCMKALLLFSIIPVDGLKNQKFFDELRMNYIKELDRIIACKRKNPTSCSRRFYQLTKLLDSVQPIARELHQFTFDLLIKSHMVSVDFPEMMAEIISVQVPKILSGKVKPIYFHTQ
Protocol: (§1) 8. Mutation Studies: The residues in the predicted binding site were mutated using the Quickchange™ Site-Directed Mutagenesis Kit as per the instructions.
(§2) 9. Transient Transfection: The PC3/MCF7 cells were seeded into a 96-well plate (2,000 cells/well). After 24 hrs, the wild-type AR (50 ng/well)/AR mutants and AR3TK-luciferase plasmids (1:3) were co-transfected into PC3 cells or ERE-luciferase (50 ng/well) was transfected into MCF7 cells using transfection reagent TT20. 24 hrs after the transfection, the cells were treated with the compounds at various concentrations. And 24 hrs later, the cells were lysed and the reading was taken using a luminometer.

AR Y594D mutant = molecular target: T3, AR Y594D mutant (Homo sapiens, UniProt P10275, Y594D); experiment: ARR3tk-luciferase reporter assay in PC3 cells, AR Y594D; format: cell-based
T3 construct: expressed in transfected cells; host or cells: PC3
T3 sequence (P10275 1-920 Y594D): T2 sequence (P10275 1-920 Q592D) with D592Q, Y594D
Protocol: as §1, §2

Structure (SMILES): Cc1cc(/C=C/c2ccc3cc(N(C)C)ccc3[n+]2C)c(C)n1-c1ccccc1 [Compound 14337, pyrvinium, reference compound]
- toxicity / induction of apoptosis (PARP cleavage) (PARP): strongly induces apoptosis
- toxicity / induction of apoptosis (PARP cleavage) (PARP; listed as pyrvinium): general toxicity
- inhibition of AR-V7Y594D transcriptional activity (AR-V7Y594D): strongly inhibited
- inhibition of Q592D AR luciferase expression (AR Q592D mutant): strongly inhibited; also recorded: inability to inhibit
- inhibition of Y594D AR luciferase expression (AR Y594D mutant): strongly inhibited; also recorded: inability to inhibit
